Measurements taken from article PMC7156657.
These are yes or no findings as the source states them, for the method shown. For part of these data: A result given as binding can be weak or reduced; the word gives no strength. For part of these data: Where a sequence is shown, tags or fusion partners need not be part of it. For part of these data: In cells and extracts the contact can be indirect.

Tests used:
[1] = target: T1, endogenous PROM2 (human (endogenous in AsPC-1)) (UniProt Q8N271); experiment: co-IP; endogenous proteins in AsPC-1 cells
T1 sequence: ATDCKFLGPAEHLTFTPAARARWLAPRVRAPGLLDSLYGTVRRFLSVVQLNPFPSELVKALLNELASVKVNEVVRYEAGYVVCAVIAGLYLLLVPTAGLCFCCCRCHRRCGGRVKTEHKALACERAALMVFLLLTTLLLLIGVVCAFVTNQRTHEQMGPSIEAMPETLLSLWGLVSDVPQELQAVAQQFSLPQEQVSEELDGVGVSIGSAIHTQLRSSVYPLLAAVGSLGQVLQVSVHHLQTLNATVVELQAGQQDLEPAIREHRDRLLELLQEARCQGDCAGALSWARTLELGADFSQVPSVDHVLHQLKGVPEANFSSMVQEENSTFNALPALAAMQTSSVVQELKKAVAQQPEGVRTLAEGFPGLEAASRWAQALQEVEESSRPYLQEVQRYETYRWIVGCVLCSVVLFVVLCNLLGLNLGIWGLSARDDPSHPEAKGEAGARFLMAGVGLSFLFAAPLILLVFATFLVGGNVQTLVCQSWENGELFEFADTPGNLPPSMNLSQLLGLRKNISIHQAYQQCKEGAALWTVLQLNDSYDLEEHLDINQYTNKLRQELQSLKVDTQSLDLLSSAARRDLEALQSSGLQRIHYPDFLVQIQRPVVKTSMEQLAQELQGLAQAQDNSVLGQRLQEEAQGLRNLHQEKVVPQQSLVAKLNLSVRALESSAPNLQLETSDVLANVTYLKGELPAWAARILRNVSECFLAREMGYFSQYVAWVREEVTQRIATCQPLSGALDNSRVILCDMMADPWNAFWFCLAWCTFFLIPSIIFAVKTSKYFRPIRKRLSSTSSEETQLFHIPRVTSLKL

[2] = target: T2, PROM2 F2 (aa 1–534) (human) (UniProt Q8N271); experiment: co-IP; co-IP with anti-Flag antibody of PROM2 full length and truncations F1-F4; AKT detected
T2 sequence: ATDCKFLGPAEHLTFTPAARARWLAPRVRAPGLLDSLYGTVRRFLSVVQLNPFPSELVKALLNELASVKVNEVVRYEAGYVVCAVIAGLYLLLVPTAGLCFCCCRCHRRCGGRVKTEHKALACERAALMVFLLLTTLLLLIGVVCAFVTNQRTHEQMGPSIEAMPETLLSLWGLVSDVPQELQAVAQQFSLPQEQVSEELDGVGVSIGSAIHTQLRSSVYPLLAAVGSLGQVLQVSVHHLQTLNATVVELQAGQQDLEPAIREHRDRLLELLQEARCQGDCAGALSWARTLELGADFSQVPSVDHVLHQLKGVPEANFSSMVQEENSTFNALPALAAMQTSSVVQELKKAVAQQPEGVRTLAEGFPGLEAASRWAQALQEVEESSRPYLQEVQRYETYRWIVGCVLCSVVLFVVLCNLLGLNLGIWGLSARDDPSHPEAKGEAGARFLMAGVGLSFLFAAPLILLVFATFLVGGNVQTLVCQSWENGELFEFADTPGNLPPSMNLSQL

[3] = target: T3, PROM2 F1 (aa 1–634) (human) (UniProt Q8N271); experiment: as above
T3 sequence: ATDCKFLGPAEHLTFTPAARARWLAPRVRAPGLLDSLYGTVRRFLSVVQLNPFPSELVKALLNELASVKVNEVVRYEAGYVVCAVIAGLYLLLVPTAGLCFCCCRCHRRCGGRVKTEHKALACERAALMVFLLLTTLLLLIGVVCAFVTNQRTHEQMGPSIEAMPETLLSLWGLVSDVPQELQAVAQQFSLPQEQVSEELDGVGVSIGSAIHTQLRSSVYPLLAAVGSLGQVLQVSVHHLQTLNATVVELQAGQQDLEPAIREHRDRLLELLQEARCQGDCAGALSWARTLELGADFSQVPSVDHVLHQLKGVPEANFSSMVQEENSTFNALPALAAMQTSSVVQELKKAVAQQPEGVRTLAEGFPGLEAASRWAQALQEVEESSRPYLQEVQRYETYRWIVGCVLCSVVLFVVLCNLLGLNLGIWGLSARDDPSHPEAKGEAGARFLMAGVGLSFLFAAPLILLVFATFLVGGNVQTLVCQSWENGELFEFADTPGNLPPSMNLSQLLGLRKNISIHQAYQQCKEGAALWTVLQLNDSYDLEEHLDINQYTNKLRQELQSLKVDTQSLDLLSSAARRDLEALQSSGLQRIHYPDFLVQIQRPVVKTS

[4] = target: T4, Flag-tagged PROM2 (PROM2-FL, full length) (human) (UniProt Q8N271); experiment: as above
T4 sequence: T1 sequence

[5] = target: T5, PROM2 F3 (aa 634–834) (human) (UniProt Q8N271); experiment: as above
T5 sequence: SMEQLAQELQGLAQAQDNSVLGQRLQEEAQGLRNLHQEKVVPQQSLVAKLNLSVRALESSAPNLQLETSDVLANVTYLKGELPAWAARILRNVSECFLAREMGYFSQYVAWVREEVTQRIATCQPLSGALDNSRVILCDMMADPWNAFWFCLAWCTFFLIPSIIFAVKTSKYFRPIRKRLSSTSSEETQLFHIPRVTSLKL

[6] = target: T6, PROM2-F4 (aa 534–634) (human) (UniProt Q8N271); experiment: as above
T6 sequence: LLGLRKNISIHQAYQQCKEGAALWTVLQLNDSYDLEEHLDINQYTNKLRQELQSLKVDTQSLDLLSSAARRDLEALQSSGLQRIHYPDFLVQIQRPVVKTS

[7] = target: T4, Flag-tagged PROM2 (PROM2-FL, full length) (human); experiment: co-IP; PROM2-AKT co-IP with PROM2-F4 (aa 534–634) expressed as inhibitor
[8] = target: T4, Flag-tagged PROM2 (PROM2-FL, full length) (human); experiment: co-IP; reciprocal; lysates of AsPC-1 transfected with indicated plasmids; lysis buffer 150 mM NaCl, 10 mM HEPES pH 7.4, 1% NP-40; FLAG/HA affinity agarose overnight at 4 °C; western blot
[9] = target: T4, Flag-tagged PROM2 (PROM2-FL, full length) (human); experiment: far-Western, overlay or dot blot; Flag-PROM2 from transfected AsPC-1 immunoprecipitated by Flag-tag affinity gel, resolved by SDS-PAGE, on PVDF membrane; recombinant GST-AKT added at 5 μg/ml, 4 °C, 18 h; TBST washes; both purified

endogenous AKT (human (endogenous in AsPC-1))
binding [1]: binds

HA-Akt
binding [2]: no binding
binding [3]: binds
binding [4]: binds
binding [5]: no binding
binding [6]: binds
binding [7]: binds
binding [8]: binds

recombinant GST-AKT protein
binding [9]: binds
